# Laboratory results: patent publication US20250134906A1 (Woolsey Pharmaceuticals, Inc., priority 2022, published 2025)
# Assay: Taste threshold concentration for fasudil
# Assay type: in vivo, human
# Settings: for Palatability: scale of 1-10, 10 best; for Palatability / After Taste / Bitterness: second taste-tester; for After Taste / Bitterness: scale of 1-10, 10 worst; for taste threshold concentration: for most people
compound,measurement,setting,value
"O=S(=O)(c1cccc2cnccc12)N1CCCNCC1 [Fasudil, hexahydro-1-(5-isoquinolinesulfonyl)-1H-1,4-diazepine monohydrochloride hemihydrate]",Palatability,0.1 mg/mL,5
same,After Taste,0.1 mg/mL,1
same,Bitterness,0.1 mg/mL,1
same,Palatability,0.5 mg/mL,2
same,After Taste,0.5 mg/mL,5
same,Bitterness,0.5 mg/mL,7
same,taste threshold concentration,,0.3 to 0.4 mg/mL
same,taste threshold concentration,super and normal tasters,0.1 to 0.4 mg/mL

# Structures can show the parent of a compound that is named as a salt.
